Test results reported in paper PMC8910852.
Results are given in words; binding and its absence hold for the method and conditions named. Binding can be weak; no strength is given.

Target: FtMYB3 (Tartary buckwheat (Fagopyrum tataricum)) (UniProt F5BUC8)
Assay: two-hybrid; FtMYB3 in pGADT7 (called the bait), partners in pGBKT7 (called the prey); yeast strain AH109; selection on SD/-Trp-Leu, then growth on SD/-Trp-Leu-His-Ade

| binding | Binder |
| --- | --- |
| binds | AtEGL3 (protein, UniProt Q9CAD0 1-596) MATGENRTVPDNLKKQLAVSVRNIQWSYGIFWSVSASQPGVLEWGDGYYNGDIKTRKTIQAAEVKIDQLGLERSEQLRELYESLSLAESSASGSSQVTRRASAAALSPEDLTDTEWYYLVCMSFVFNIGEGIPGGALSNGEPIWLCNAETADSKVFTRSLLAKSASLQTVVCFPFLGGVLEIGTTEHIKEDMNVIQSVKTLFLEAPPYTTISTRSDYQEIFDPLSDDKYTPVFITEAFPTTSTSGFEQEPEDHDSFINDGGASQVQSWQFVGEEISNCIHQSLNSSDCVSQTFVGTTGRLACDPRKSRIQRLGQIQEQSNHVNMDDDVHYQGVISTIFKTTHQLILGPQFQNFDKRSSFTRWKRSSSVKTLGEKSQKMIKKILFEVPLMNKKEELLPDTPEETGNHALSEKKRREKLNERFMTLRSIIPSISKIDKVSILDDTIEYLQDLQKRVQELESCRESADTETRITMMKRKKPDDEEERASANCMNSKRKGSDVNVGEDEPADIGYAGLTDNLRISSLGNEVVIELRCAWREGILLEIMDVISDLNLDSHSVQSSTGDGLLCLTVNCKHKGTKIATTGMIQEALQRVAWIC |
| binds | AtTTG1 (protein, UniProt Q9XGN1 1-341) MDNSAPDSLSRSETAVTYDSPYPLYAMAFSSLRSSSGHRIAVGSFLEDYNNRIDILSFDSDSMTVKPLPNLSFEHPYPPTKLMFSPPSLRRPSSGDLLASSGDFLRLWEINEDSSTVEPISVLNNSKTSEFCAPLTSFDWNDVEPKRLGTCSIDTTCTIWDIEKSVVETQLIAHDKEVHDIAWGEARVFASVSADGSVRIFDLRDKEHSTIIYESPQPDTPLLRLAWNKQDLRYMATILMDSNKVVILDIRSPTMPVAELERHQASVNAIAWAPQSCKHICSGGDDTQALIWELPTVAGPNGIDPMSVYSAGSEINQLQWSSSQPDWIGIAFANKMQLLRV |
| binds | AtGL3 (protein, UniProt Q9FN69 1-637) MATGQNRTTVPENLKKHLAVSVRNIQWSYGIFWSVSASQSGVLEWGDGYYNGDIKTRKTIQASEIKADQLGLRRSEQLSELYESLSVAESSSSGVAAGSQVTRRASAAALSPEDLADTEWYYLVCMSFVFNIGEGMPGRTFANGEPIWLCNAHTADSKVFSRSLLAKSAAVKTVVCFPFLGGVVEIGTTEHITEDMNVIQCVKTSFLEAPDPYATILPARSDYHIDNVLDPQQILGDEIYAPMFSTEPFPTASPSRTTNGFDQEHEQVADDHDSFMTERITGGASQVQSWQLMDDELSNCVHQSLNSSDCVSQTFVEGAAGRVAYGARKSRVQRLGQIQEQQRNVKTLSFDPRNDDVHYQSVISTIFKTNHQLILGPQFRNCDKQSSFTRWKKSSSSSSGTATVTAPSQGMLKKIIFDVPRVHQKEKLMLDSPEARDETGNHAVLEKKRREKLNERFMTLRKIIPSINKIDKVSILDDTIEYLQELERRVQELESCRESTDTETRGTMTMKRKKPCDAGERTSANCANNETGNGKKVSVNNVGEAEPADTGFTGLTDNLRIGSFGNEVVIELRCAWREGVLLEIMDVISDLHLDSHSVQSSTGDGLLCLTVNCKHKGSKIATPGMIKEALQRVAWIC |
